We go through eleven molecules from US20130251724A1.

Where a chain is given by its changes, count along the chain named. These are yes or no findings as the source states them, for the method shown. Some entries that bind do so weakly or less than the wild type.

In test [1] the target is Cynomolgus OSM (cynomolgus). Nature of the test: BIAcore, purified antibody. A general note: SPR reads the build-up and loss of mass on a sensor chip optically.
Test [2] deals with Cynomolgus OSM (cynomolgus). Put plainly: BIAcore kinetics.

B1: Humanised 10G8 H0L1 (antibody, human IgG1, kappa, V domains shown)
VH: EVQLVESGGGLVQPGGSLRLSCAASGFTFSNYAMSWVRQAPGKGLEWVATISDGGSFTYYLDNVRGRFTISRDNAKNSLYLQMNSLRAEDTAVYYCARDVGHTTFWYFDVWGRGTLVTVSS
VL: DIVMTQSPDSLAVSLGERATINCRASKSVSAAGYNFMHWYQQKPGQPPKVLIYYASNLESGVPDRFSGSGSGTDFTLTISSLQAEDVAVYYCLHSREFPFTFGGGTKVEIKR
On to B1, for which the binding entry in test [1] is on record as “binds”.

B2: Humanised 10G8 H2L1 (antibody, V domains shown)
VH: B1 VH with R113S
VL: DIVMTQSPDSLAVSLGERATINCRASKSVSAAGYNFMHWYQQKPGQPPKVLIYYASNLESGVPDRFSGSGSGTDFTLTISSLQAEDVAVYYCLHSREFPFTFGGGTKVEIK
Turning to B2, the binding result in test [1] is “binds”.

B3: Humanised 10G8 H0L4 (antibody, V domains shown)
VH: B1 VH
VL: B2 VL with A88V, K107N
B3: in test [1], the binding result is listed as “binds”.

B4: Humanised 10G8 H2L4 (antibody, V domains shown)
VH: B1 VH with R113S
VL: B2 VL with A88V, K107N
B4: the binding entry in test [1] is listed as “binds”.

B5: Humanised 10G8 H1L1 (antibody, V domains shown)
VH: B1 VH with V2M
VL: B2 VL
On to B5, for which the binding entry in test [1] is “binds”.

B6: Humanised 10G8 H0(IGHV3-23)L1 (antibody, human IgG1, kappa, V domains shown)
VH: B1 VH with N31S
VL: B1 VL
Take B6: the binding result in test [1] is reported as “binds”.

B7: Humanised 10G8 H1L4 (antibody, V domains shown)
VH: B1 VH with V2M
VL: B2 VL with A88V, K107N
Take B7: the binding result in test [1] is recorded as “binds”.

B8: 9G2, murine anti-OSM mAb (antibody, V domains shown)
VH: EVQLVESGGGLVEPGGSLKLSCAASGFTFSNYAMSWVRQTPEKRLEWVATISDGGSFTYYLDNVKGRFTISRDNAKNNLYLQMSHLKSDDTAMYYCARDVGHTTFWYFDVWGTGTTVTVSS
VL: DIVLTQSPVFLVISLGQRATISCRASKSVSASGYNFMHWYQQKPGQPPKVLIKYASNLESGVPARFSGSGSGTDFTLNIHPVEEEDAVTYYCQHSREFPFTFGGGTKLEIK
As to B8, the binding result in test [2] was “binds”.

B9: 10G8 chimaera (antibody, human IgG1, kappa, V domains shown)
VH: B8 VH with V2M, G9E, R44S, K65R, T113S, T116L
VL: DIVLTQSPVFLVVSLGQRATISCRASKSVSAAGYNFMHWYQQKPGQPPKVLIKYASNLESGVPARFSGSGSGTDFTLNIHPVEEEDAVTYYCLHSREFPFTFGGGTNLEIKR
For B9, the binding result in test [2] is “binds”.

B10: anti human OSM mAb S168110G08(1)1A09 (10G8), murine (antibody, V domains shown)
VH: B8 VH with V2M, G9E, R44S, K65R, T113S, T116A
VL: B8 VL with I13V, S32A, Q93L, K107N
With B10, in test [2], the binding entry is on record as “binds”.

B11: 9G2 chimaera (antibody, human IgG1, kappa, V domains shown)
VH: B8 VH with T116L
VL: B9 VL with V13I, A32S, L93Q, N107K
Regarding B11, the binding result in test [2] was “binds”.
